Library screen at single concentrations

From ChEMBL document CHEMBL3988442, “University of Dundee, Small-Polar-MMV Screening Library” (2021).

T. brucei: 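Whole-parasite assay of Trypanosoma brucei over 72 hours; the read-out is not stated. Tested at 30 µM. Higher reads as stronger inhibition (inferred: compounds with an IC50 in retests scored well above the rest). Values scatter widely below zero; nearly all retest evidence comes from the higher of the two concentrations used. Size under these conditions: about 64,000 compounds, about 940 of them at 50% or above in at least one test.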
Toxoplasma: 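Assay of Toxoplasma gondii numbers, read through their beta-galactosidase reporter with a colour substrate. Tested at 10 µM. Higher reads as fewer parasites (inferred from which compounds were picked for retests). Size under these conditions: about 67,000 compounds, about 260 of them at 50% or above in at least one test.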

Values are the deposited “Percent Effect”, in %. The controls that fix the scale are not given in the record; negative values are as filed. This is an unselected part of the compounds tested. A dash means the value is not listed here; it may have been measured.

| SMILES | T. brucei | Toxoplasma |
|---|---|---|
| `CCOc1ccccc1Nc1nc2c(C)nn(C)c2c(=O)n1C` | -25.66 | 17.23 |
| `Cc1ccc(CNC(=O)CN2CCCC(Cn3cncn3)C2)cc1` (stereo not shown) | 13.09 | -12.26 |
| `CS(=O)(=O)N1CCc2c(nnn2CC2CC2)C1COCC1CC1` (stereo not shown) | -41.42 | 13.73 |
| `O=C(Nc1ccccc1)C1CN(Cc2nccs2)CC12CCOCC2` (stereo not shown) | -54.2 | 0.6631 |
| `[H][C@]12CNC[C@@]1(C(=O)NCCCc1ccccc1)CN(C(=O)C1CC1)C2` | 11.57 | -2.248 |
| `Cn1nc2c(c1NC(=O)c1ccc(C3CCCN3C3CCC3)s1)CCC2` (stereo not shown) | -20.63 | - |
| `CCn1cc(CNc2ccc(F)c(F)c2)cn1` | - | 3.327 |
| `CCn1cc(CN2CCCC(c3[nH]ncc3S(C)(=O)=O)C2)cn1` (stereo not shown) | 10.83 | -6.471 |
| `O=C(N[C@H]1CC[C@H](O)CC1)c1ccc2nc(-c3ccc(F)cc3)cn2c1` | 6.223 | -3.386 |
| `Cc1cccc(-c2noc(CN3CC(n4cccn4)C3)n2)c1` | 21.24 | 3.222 |
| `CCc1noc(CS(=O)(=O)C(C)c2nc(C3CC3)no2)n1` (stereo not shown) | -70.41 | -25.77 |
| `CSc1ccc(CNC(=O)Cc2c(C)n[nH]c2C)cc1` | -1.69 | 6.065 |
| `CSc1cc2c(cc1NC(=O)NCC(=O)N(C)C)OCCO2` | -22.15 | -4.33 |
| `O=C(NCC1(CO)CC1)c1nnn(-c2ccc(F)cc2)c1C1CC1` | -22.86 | 2.197 |
| `COc1cc(C(=O)N2CCC(Nc3cccnc3)CC2)ccc1C` | -8.79 | 1.909 |
| `O=C(O)C(F)(F)F.O=C(O)C(F)(F)F.c1cncc(-c2nnn3c2COCC(CNC2CCOCC2)C3)c1` (stereo not shown) | -0.7004 | -8.647 |
| `Cc1nc(O)cc(C2CCN(C(=O)c3[nH]nc4c3CC(C)CC4)CC2)n1` (stereo not shown) | -14.26 | -1.576 |
| `CC(C)NS(=O)(=O)c1cc(C(=O)O)cc(-c2ccc3c(c2)OCCO3)c1` | 3.192 | 7.777 |
| `Cc1ccncc1CN1CCOCC1c1[nH]ncc1C` (stereo not shown) | -6.332 | -3.329 |
| `[H][C@@]12CS(=O)(=O)C[C@]1([H])N(S(=O)(=O)c1cccc(F)c1)CCN2C(=O)CC` | - | -4.48 |
| `Cc1ccc(C)c(C(C(=O)O)N2CCCN(Cc3ccccn3)CC2)c1` (stereo not shown) | -35.82 | -1.532 |
| `CCO[C@@H]1CCN(C(=O)c2ccc[nH]2)[C@@H]1Cc1cccnc1.O=C(O)C(F)(F)F` | -12.04 | -5.211 |
| `CCc1noc(C2CCCCN2C(=O)c2cc(C)n(C)n2)n1` (stereo not shown) | -3.284 | 9.091 |
| `[H][C@@]12C[C@H](C(=O)N3CCCC3)[C@@]([H])(CN(C(=O)NCC3CCCCC3)C1)O2` | -49.76 | -4.153 |
| `CCc1ccc(C(=O)N2CCN(c3nc(C)cc(OC)n3)CC2)o1` | -18.05 | -7.774 |
| `COCCN1CCN(C(=O)N2CCCC2)Cc2ccc(C)nc21.O=C(O)C(F)(F)F` | -17.87 | -6.729 |
| `CN(CCn1cccn1)S(=O)(=O)c1cccc(F)c1C#N` | 16.4 | 2.299 |
| `Cn1ncc2c1NC(=O)CC2c1ccccc1Cl` (stereo not shown) | 21.25 | 1.257 |
| `Cc1ccc(N(CC(=O)N2CCCCC2)C(=O)C2CCCO2)cc1` (stereo not shown) | -4.879 | -1.623 |
| `CCN(CC)c1ccc2ccc(C(=O)NC3CC3)cn12` | -49.57 | 1.862 |
| `Cc1ccc(C(=O)Nc2ccc(N3CCCC3)cn2)cc1F` | -34.4 | 12.44 |
| `CC(=O)N1CCCC1c1nccnc1NCc1cccnc1` (stereo not shown) | -6.306 | 5.018 |
| `Cc1nccn1CCNC(=O)C1(C)CC(c2ccccc2)=NO1` (stereo not shown) | -0.5877 | 14.79 |
| `CN(C)[C@@H]1CCN(C(=O)c2ccccn2)[C@H]1Cc1cnn(C)c1` | -61.36 | 7.138 |
| `CCCC(=O)N1CCCN(C(=O)Nc2ccc(C)s2)CC1` | -48.62 | -80.77 |
| `O=C(c1cccnc1O)N1CCOC(c2ccc(Cl)cc2)C1` (stereo not shown) | -24.74 | -9.411 |
| `[H][C@]12C[C@H](NC(=O)C(C)C)[C@@]1([H])CN(S(=O)(=O)c1ccc(C)cc1)C2` | -8.293 | 2.893 |
| `O=S(=O)(NCc1cc2n(n1)CCNC2)c1ccc(OC(F)(F)F)cc1` | -79.65 | 13.17 |
| `[H][C@@]12CCCO[C@]1([H])[C@H](N(C)C)CN(c1nnc(C)s1)C2` | -80.02 | 0.1618 |
| `CNc1oc(-c2ccc(OC)c(S(=O)(=O)N3CCCC3)c2)nc1C#N` | -31.59 | -2.784 |
| `O=C(c1ccsc1)N1CCc2nnc(COc3cncnc3)n2CC1` | - | -16.83 |
| `Cc1nnc(SCc2cccc(F)c2)n1CC(N)=O` | -17.54 | -0.6478 |
| `Cn1cnnc1C1CCCN(C(=O)c2cc(Cl)c3c(c2)OCO3)C1` (stereo not shown) | -9.153 | -6.513 |
| `COc1cc(N2CC[C@@H](O)[C@@H]2Cc2cccnc2)ncn1.O=C(O)C(F)(F)F` | 32.1 | -2.059 |
| `CC(=O)N(Cc1noc(C)n1)C1CCN(Cc2cnc(C)s2)C1` (stereo not shown) | - | 1.883 |
| `COC(=O)N1CCN(Cc2csc(-c3ncccn3)n2)CC1` | 4.753 | 5.698 |
| `CC(C)c1ccc(CC2(C)Cc3cc(CC(=O)O)ccc3O2)cc1` (stereo not shown) | -10.41 | 2.061 |
| `Cc1cccc(S(=O)(=O)N2CCC3(CC2)CC(N(C)C)CO3)c1` (stereo not shown) | -23.21 | 3.48 |
| `Cc1ccsc1CNc1ccccc1C(=O)N1CCNC(=O)C1` | -15.09 | -2.616 |
| `COCc1nnc(NC(=O)c2cn(C(C)C)c3ccc(OC)cc23)s1` | - | 19.31 |
| `CCS(=O)(=O)N1CCCCC1c1nc(CC(C)C)no1` (stereo not shown) | 4.852 | -2.654 |
| `CC(C)C(C(=O)NC1CC1)n1cnc2cc(F)c(F)cc21` (stereo not shown) | -3.061 | -6.283 |
| `Cc1cc(C2CCCN2Cc2ccc(S(=O)(=O)N3CCCC3)o2)on1` (stereo not shown) | -34.56 | 6.073 |
| `CS(=O)(=O)NCc1ncn2c1CN(C(=O)C1CCCO1)CCC2` (stereo not shown) | 9.383 | -5.226 |
| `CCn1cnnc1CCNC(=O)CCNC(=O)c1ccccc1F` | -7.248 | 11.52 |
| `COc1ccccc1CC(=O)N1CCC(NCc2ccncc2)CC1` | - | -17.17 |
| `CCS(=O)(=O)N(C)C1CCN(C(=O)c2ccc(C)c(C)c2)CC1` | -33.03 | 0.1608 |
| `Cc1noc(C2CCCN(C(=O)c3cc(-c4ccccc4)on3)C2)n1` (stereo not shown) | -17.03 | -1.937 |
| `CCOC(=O)C1CSCCN1C(=O)c1ccc(-n2nc(C)cc2C)cc1` (stereo not shown) | -50.83 | -4.054 |
| `CC(c1ncc(C(C)(C)C)o1)N1CCN(Cc2ccc(Cl)s2)CC1` (stereo not shown) | -15.32 | -2.135 |